In the supplement of paper PMC10849652:
The list shows a part of the results.

Protein sequences, listed by entry. Tags and fused reporters are not part of them. Lines headed by an entry give the natural chain unless they say otherwise; changes in a name come on top.
UniProt Q8NG11: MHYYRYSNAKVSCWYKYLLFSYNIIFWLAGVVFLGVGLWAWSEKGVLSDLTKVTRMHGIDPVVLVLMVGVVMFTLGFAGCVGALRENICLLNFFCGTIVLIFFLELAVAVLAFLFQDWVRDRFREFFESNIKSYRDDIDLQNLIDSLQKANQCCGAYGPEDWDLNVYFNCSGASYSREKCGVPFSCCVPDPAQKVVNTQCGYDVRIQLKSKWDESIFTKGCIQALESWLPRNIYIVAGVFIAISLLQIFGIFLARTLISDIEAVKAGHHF
UniProt Q9Y385: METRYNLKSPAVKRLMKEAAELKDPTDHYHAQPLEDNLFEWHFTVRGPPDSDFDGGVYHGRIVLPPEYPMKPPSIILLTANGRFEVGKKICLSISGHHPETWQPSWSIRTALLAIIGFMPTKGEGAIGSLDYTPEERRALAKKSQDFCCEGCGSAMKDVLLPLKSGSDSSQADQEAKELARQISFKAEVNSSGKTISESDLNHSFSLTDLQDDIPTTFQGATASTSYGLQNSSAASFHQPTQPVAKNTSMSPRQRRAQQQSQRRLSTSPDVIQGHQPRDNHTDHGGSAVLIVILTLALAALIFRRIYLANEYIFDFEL
UniProt P63279, whole entry, looked up: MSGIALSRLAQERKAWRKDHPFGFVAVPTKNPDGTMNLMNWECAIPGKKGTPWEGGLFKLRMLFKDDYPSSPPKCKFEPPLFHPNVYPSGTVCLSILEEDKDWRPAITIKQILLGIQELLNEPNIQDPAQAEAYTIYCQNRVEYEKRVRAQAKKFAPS
UniProt Q16881, whole entry, looked up: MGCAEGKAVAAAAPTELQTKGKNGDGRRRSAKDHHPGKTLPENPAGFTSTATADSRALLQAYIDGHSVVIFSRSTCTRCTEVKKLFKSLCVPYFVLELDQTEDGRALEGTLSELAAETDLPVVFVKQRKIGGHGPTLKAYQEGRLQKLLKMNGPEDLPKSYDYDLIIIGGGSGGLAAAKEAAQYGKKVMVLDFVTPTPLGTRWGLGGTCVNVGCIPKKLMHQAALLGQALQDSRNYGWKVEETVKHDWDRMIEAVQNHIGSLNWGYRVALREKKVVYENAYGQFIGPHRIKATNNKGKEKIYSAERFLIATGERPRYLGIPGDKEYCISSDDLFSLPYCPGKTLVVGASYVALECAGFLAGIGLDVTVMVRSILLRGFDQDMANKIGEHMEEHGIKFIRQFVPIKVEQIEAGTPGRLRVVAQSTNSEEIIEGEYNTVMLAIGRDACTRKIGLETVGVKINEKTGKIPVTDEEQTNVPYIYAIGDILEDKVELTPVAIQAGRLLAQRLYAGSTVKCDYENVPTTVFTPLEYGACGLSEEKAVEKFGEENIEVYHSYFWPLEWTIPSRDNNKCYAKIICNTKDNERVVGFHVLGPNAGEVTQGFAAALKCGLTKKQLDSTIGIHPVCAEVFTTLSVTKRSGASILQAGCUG
UniProt O43396: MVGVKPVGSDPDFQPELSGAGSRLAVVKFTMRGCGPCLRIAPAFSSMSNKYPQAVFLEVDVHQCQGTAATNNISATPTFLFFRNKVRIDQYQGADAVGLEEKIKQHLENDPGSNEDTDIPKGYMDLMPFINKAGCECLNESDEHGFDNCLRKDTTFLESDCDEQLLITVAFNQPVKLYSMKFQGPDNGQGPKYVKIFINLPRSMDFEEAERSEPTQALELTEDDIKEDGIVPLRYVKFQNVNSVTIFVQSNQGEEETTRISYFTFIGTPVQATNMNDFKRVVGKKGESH
UniProt Q6NXR4: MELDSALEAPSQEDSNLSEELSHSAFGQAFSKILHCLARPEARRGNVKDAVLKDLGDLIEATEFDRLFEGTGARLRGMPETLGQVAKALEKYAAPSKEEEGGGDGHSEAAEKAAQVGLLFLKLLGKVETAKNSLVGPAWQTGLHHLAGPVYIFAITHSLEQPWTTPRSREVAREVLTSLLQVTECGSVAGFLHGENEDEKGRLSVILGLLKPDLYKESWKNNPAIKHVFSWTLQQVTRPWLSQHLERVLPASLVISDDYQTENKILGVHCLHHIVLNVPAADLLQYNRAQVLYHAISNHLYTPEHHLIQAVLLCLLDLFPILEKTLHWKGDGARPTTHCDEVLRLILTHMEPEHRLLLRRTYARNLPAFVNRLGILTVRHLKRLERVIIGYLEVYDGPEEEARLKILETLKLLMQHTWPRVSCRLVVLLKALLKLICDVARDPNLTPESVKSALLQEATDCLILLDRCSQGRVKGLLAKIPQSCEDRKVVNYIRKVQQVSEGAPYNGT
UniProt Q3KQV9: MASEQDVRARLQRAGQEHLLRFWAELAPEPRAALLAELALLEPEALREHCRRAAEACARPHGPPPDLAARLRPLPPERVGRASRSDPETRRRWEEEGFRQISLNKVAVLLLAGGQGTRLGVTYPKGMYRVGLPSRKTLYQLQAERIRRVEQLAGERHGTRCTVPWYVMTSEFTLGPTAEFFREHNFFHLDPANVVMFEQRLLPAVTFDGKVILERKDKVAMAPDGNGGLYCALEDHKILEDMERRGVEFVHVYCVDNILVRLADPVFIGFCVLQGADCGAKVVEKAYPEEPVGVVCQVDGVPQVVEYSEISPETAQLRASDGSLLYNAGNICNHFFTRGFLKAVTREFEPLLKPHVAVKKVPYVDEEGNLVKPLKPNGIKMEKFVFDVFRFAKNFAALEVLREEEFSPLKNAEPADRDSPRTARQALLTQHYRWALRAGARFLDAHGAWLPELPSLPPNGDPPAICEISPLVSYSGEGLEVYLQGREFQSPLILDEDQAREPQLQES
UniProt Q9H3M7: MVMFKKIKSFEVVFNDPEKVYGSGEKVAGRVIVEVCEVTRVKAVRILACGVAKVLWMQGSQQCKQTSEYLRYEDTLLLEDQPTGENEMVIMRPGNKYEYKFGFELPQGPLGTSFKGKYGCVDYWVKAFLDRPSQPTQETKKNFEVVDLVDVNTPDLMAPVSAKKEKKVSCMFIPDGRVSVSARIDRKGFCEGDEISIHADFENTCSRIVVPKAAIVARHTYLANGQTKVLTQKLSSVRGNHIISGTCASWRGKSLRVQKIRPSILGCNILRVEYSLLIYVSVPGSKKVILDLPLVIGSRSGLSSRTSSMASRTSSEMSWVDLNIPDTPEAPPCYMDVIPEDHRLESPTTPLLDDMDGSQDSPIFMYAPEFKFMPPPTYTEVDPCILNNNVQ
UniProt Q9NZ09: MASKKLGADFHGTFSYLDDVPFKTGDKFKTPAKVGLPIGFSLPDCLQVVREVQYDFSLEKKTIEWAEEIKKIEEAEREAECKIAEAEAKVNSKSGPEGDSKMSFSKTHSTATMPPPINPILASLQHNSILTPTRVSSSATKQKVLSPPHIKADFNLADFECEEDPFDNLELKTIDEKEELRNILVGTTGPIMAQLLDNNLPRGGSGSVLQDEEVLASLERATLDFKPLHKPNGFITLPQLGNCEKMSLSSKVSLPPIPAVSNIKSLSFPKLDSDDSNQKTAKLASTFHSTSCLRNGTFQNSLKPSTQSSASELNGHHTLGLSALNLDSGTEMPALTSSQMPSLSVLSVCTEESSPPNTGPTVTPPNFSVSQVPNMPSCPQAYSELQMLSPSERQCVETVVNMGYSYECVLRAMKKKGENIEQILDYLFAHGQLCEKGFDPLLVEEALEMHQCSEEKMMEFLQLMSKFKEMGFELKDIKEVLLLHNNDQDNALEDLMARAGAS
UniProt Q99816: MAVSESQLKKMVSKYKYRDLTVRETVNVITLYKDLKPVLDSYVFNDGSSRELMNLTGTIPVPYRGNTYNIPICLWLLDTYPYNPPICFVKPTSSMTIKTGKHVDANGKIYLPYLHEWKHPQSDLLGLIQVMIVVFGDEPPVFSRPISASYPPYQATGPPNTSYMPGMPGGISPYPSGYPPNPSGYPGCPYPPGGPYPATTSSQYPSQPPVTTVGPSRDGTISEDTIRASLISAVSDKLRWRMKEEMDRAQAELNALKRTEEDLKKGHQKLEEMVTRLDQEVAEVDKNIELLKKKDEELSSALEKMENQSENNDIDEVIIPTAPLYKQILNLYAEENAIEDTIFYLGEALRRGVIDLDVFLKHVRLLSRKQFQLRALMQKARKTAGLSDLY
UniProt P62253: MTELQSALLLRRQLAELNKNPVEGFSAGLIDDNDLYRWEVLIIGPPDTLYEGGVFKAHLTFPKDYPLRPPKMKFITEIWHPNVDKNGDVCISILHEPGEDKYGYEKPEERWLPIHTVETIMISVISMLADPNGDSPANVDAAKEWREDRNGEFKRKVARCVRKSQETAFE
UniProt Q9NV66: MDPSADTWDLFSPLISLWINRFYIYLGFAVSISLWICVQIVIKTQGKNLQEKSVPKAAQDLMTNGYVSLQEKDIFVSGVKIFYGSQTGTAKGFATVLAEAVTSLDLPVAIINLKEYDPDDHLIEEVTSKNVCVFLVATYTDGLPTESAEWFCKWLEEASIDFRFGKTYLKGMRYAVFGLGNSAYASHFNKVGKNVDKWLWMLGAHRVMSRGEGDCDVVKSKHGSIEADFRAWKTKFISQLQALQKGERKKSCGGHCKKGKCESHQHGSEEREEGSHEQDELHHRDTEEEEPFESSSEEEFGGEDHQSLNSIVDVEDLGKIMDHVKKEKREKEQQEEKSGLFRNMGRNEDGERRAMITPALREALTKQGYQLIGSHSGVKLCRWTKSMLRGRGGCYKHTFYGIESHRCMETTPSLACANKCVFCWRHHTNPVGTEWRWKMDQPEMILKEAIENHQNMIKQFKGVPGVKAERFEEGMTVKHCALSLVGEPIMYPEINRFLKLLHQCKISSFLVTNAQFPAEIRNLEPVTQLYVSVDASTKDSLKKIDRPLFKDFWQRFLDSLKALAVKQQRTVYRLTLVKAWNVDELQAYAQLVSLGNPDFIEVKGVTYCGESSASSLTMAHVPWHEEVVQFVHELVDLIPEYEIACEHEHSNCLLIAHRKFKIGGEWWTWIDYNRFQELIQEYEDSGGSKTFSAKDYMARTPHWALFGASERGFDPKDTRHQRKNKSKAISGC
UniProt Q99757: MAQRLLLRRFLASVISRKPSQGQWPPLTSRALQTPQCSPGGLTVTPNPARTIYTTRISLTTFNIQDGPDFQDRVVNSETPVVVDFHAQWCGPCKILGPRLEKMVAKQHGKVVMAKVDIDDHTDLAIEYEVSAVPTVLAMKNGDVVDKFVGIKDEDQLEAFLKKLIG
UniProt P22314: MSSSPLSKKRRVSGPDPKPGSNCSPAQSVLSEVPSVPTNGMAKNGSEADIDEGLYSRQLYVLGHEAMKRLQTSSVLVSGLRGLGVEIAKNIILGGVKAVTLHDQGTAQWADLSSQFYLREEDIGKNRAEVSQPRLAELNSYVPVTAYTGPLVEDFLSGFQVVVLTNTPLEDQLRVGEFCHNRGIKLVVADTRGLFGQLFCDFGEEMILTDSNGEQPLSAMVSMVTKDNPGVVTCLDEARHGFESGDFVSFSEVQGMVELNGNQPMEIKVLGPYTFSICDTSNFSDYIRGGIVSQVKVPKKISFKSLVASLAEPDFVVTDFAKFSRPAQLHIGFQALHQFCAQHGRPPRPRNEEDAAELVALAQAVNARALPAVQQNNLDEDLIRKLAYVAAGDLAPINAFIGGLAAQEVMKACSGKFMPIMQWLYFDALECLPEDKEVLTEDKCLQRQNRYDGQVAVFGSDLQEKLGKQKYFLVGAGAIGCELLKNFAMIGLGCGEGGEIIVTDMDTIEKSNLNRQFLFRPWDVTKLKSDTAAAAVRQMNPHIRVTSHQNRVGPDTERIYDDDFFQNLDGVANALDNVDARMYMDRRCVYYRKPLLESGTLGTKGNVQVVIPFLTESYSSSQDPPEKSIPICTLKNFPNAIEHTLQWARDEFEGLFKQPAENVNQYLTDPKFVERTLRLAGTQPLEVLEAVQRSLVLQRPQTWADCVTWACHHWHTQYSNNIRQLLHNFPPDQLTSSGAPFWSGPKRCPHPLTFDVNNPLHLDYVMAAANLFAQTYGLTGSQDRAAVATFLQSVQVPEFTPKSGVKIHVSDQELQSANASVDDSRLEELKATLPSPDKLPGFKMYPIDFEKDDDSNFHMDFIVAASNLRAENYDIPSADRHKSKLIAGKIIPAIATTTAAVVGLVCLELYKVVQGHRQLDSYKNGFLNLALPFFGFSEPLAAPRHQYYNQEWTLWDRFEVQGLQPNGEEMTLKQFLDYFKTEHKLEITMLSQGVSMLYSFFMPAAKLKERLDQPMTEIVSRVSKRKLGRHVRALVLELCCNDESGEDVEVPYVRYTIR
UniProt Q13509, whole entry, looked up: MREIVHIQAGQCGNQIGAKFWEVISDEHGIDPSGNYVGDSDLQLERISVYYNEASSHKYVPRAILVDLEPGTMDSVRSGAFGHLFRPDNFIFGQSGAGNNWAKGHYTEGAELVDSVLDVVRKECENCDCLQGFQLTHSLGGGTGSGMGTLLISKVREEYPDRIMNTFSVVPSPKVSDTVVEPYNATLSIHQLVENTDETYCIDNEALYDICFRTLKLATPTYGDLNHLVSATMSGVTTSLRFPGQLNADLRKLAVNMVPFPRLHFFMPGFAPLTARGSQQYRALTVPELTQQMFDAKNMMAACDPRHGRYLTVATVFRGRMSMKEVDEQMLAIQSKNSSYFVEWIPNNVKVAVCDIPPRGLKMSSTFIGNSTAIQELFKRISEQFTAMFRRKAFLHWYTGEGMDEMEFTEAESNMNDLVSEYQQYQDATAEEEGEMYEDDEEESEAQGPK

Compound: C1COCCN1CCN2C3=CC=CC=C3N=C2NC(=O)C4=CC(=CC=C4)[N+](=O)[O-] [IRAK-1-4 Inhibitor I]
Test: log2 fold change, soluble protein after heating vs DMSO (PISA); higher = thermal stabilisation; K562 cells, 10 uM, 30 min; active = over 0.2 and 3.5 SD of the protein, either way, in both replicates (recomputed)
Summary of the method: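 Values are thermal stability changes relative to control samples and are taken from duplicates. They are stated as log2 fold changes. Before quantification by TMTpro 16plex LC-MS/MS with equalised channel sums, K562 cells at 2×10^6 cells/mL were treated with 10 μM compound for 30 min, heated in aliquots for 3 min across 48°C-58°C, pooled, extracted in PBS with 0.5% NP-40 at 4°C, and centrifuged at 21,000xg for 90 min to give the soluble supernatant.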

log2 fold change, inactive:
TSPAN14 (UniProt Q8NG11) 0.028
UBE2J1 (UniProt Q9Y385) -0.447
UBE2H (UniProt P62256) 0.02
TUBA1C (UniProt Q9BQE3) 0.038
UBE2I (UniProt P63279) 0.028
UBAP2L isoform 1 (UniProt Q14157) 0.076
TTPAL (UniProt Q9BTX7) -0.023
TXNRD1 (UniProt Q16881) 0.064
TXNL1 (UniProt O43396) -0.035
TTC27 (UniProt Q6P3X3) -0.079
TTI2 (UniProt Q6NXR4) -0.032
UAP1L1 (UniProt Q3KQV9) 0.05
TXNIP (UniProt Q9H3M7) 0.05
UBAP1 isoform 4 (UniProt Q9NZ09) -0.058
UBAP2L isoform 5 (UniProt Q14157) 0.053
TSG101 (UniProt Q99816) 0.05
TUBA1B (UniProt P68363) 0.027
UBA52 (UniProt P62987) -0.098
UBE2G1 (UniProt P62253) 0.048
TYW1 (UniProt Q9NV66) -0.031
TXN2 (UniProt Q99757) 0.081
UBA1 (UniProt P22314) -0.145
UBA6 -0.038
TUBB3 (UniProt Q13509) 0.095

2 entries drawn at random from the list so far:
log2 fold change, inactive:
TYW1 (UniProt Q9NV66) -0.031
UBA1 (UniProt P22314) -0.145
